# Primary screen of a compound library

By UniProt entry, the sequences of proteins in these tests, tags left out. Residues count along the entry.
UniProt P9WPC5, whole entry: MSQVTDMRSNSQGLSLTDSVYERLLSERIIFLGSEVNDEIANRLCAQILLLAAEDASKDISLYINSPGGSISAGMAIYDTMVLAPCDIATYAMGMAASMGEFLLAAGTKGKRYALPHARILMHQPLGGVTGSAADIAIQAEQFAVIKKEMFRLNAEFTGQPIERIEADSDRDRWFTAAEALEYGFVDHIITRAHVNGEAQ
UniProt P9WPC3, whole entry partner: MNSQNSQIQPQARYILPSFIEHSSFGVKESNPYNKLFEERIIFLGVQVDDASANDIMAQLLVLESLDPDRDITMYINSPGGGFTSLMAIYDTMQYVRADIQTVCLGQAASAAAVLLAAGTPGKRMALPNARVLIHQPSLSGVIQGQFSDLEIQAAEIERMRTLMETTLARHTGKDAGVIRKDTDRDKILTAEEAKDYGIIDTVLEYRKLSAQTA
UniProt Q4DA54, 1-478: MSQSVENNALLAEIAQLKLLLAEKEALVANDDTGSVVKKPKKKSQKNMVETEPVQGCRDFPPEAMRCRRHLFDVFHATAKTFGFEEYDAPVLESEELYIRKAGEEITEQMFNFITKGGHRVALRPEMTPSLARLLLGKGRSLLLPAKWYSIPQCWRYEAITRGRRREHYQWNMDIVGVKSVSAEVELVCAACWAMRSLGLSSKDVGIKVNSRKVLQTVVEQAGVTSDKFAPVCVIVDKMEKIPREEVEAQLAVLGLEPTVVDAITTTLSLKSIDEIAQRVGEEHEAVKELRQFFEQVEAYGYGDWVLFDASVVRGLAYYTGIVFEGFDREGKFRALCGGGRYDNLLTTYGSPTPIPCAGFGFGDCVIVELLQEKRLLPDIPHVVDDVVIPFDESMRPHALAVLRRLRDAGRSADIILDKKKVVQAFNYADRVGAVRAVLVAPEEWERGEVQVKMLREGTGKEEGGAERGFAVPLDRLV
UniProt I6X8D2, whole entry: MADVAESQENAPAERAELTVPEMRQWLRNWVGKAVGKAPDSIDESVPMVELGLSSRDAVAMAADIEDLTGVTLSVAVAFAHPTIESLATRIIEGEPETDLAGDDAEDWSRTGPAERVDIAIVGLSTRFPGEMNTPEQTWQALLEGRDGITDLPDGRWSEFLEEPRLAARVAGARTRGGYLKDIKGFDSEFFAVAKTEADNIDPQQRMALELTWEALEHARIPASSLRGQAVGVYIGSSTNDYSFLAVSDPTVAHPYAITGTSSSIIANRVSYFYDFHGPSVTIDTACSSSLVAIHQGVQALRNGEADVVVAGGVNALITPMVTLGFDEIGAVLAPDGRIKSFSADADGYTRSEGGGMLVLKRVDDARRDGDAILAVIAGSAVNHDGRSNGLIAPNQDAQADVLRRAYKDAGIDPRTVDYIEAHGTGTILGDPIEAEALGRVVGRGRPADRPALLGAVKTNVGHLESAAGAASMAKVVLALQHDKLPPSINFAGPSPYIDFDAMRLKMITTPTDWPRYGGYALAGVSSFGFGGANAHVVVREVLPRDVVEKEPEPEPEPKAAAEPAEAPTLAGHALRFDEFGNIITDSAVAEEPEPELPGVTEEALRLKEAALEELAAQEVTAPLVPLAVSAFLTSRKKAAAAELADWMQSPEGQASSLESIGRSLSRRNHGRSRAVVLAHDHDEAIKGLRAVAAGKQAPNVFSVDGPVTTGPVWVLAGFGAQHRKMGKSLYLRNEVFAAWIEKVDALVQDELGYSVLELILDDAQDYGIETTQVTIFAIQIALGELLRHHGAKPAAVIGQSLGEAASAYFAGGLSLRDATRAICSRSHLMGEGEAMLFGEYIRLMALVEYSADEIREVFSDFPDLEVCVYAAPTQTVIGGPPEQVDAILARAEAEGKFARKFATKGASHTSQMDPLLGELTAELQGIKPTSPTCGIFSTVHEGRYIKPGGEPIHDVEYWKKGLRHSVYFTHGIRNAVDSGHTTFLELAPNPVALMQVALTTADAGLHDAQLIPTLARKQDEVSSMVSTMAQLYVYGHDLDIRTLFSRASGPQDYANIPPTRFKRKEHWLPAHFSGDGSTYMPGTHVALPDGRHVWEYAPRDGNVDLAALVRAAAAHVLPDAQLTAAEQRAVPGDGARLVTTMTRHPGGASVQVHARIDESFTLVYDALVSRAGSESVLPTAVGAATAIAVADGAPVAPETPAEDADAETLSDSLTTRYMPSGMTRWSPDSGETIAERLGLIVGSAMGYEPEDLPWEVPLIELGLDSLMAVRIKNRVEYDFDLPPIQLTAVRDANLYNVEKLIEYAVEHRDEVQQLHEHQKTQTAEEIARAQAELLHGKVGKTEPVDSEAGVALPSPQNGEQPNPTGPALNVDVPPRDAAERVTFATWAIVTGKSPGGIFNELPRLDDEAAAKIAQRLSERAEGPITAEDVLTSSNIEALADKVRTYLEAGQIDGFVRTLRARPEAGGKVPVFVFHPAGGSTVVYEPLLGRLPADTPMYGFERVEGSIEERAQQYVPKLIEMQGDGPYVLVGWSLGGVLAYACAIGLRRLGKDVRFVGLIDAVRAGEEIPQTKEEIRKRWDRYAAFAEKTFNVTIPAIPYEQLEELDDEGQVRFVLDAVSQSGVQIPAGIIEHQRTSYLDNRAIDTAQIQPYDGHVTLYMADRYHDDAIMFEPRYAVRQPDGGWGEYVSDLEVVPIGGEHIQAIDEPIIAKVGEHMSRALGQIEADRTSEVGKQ
UniProt Q8IDJ8, 1-583: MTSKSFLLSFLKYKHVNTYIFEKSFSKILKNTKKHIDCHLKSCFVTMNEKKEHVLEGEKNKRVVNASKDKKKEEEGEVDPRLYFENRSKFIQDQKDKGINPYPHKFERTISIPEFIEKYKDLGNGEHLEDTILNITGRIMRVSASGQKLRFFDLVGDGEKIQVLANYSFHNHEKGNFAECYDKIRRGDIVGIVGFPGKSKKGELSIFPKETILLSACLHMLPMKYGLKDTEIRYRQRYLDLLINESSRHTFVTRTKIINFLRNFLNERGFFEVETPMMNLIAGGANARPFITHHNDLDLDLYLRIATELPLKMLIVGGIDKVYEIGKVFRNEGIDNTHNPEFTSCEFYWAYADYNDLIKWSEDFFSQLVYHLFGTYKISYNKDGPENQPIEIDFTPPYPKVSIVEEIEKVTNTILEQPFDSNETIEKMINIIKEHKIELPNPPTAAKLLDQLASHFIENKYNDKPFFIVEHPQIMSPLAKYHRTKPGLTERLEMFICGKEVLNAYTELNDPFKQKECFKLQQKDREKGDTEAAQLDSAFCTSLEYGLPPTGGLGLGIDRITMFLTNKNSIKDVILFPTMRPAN

The values are deposited in ChEMBL (CHEMBL3988442, “University of Dundee, Small-Polar-MMV Screening Library” (2021)).

ClpP1P2: 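Protease assay of ClpP1P2, read by the AMC dye that it sets free. Target: ClpP1P2, Mycobacterium tuberculosis (UniProt P9WPC5 and UniProt P9WPC3). Tested at 50 µM. Direction is inferred from only a few compounds that gave an IC50; most scored high, so higher reads as stronger inhibition. Most other retested compounds had strongly negative values. Of about 69,000 compounds tested this way, about 10 (0.015%) reached 50% or more in at least one test.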
Toxoplasma: 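Assay of Toxoplasma gondii numbers, read through their beta-galactosidase reporter with a colour substrate. Tested at 10 µM. Higher reads as fewer parasites (inferred from which compounds were picked for retests). Of about 67,000 compounds tested this way, about 260 (0.38%) reached 50% or more in at least one test.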
TcHisRS: 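Enzyme assay of histidyl-tRNA synthetase; the read-out is not stated. Target: Histidine-tRNA ligase, Trypanosoma cruzi CL Brener (UniProt Q4DA54). Tested at 30 µM. Direction is inferred from retests: higher values go with stronger inhibition. About 69,000 compounds were tested under these conditions; 0.045% (about 31) showed 50% or more at least once.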
Pks13 thioesterase: 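Enzyme assay of the thioesterase domain of polyketide synthase 13; the read-out is not stated. Target: Polyketide synthase Pks13, Mycobacterium tuberculosis (UniProt I6X8D2). Tested at 30 µM. The record gives no direction; the compounds picked for IC50 retests had high values, so higher reads as stronger inhibition. Of about 67,000 compounds tested this way, about 300 (0.46%) reached 50% or more in at least one test.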
PfKRS1: 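Lysine-tRNA ligase, Plasmodium falciparum 3D7 (UniProt Q8IDJ8). Enzyme assay of the cytosolic lysyl-tRNA synthetase in 384-well plates, read by luminescence. Concentration: 30 µM. Higher reads as stronger inhibition, judged from the few compounds that gave an IC50. Of about 69,000 compounds tested this way, about 49 (0.071%) reached 50% or more in at least one test.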

Each number is a percent effect as filed. How 0% and 100% were set is not recorded. Most values in the screen are low, and negative values occur. Compounds were drawn at random from those tested, without regard to their results. A dash means the value is not listed here; it may have been measured.

Compound | ClpP1P2 | Toxoplasma | TcHisRS | Pks13 thioesterase | PfKRS1
CCc1ncnc(N2CCCC(c3cc(C(N)=O)[nH]n3)C2)c1F (stereo not shown) | -2.511% | 0.8739% | 4.255% | -14.11% | 4.164%
c1csc(CN2CCCC3(COCCN(c4cnccn4)C3)C2)c1 (stereo not shown) | -0.5085% | - | 17.65% | -4.592% | 0.5598%
CCN(C(=O)COC)C(c1cccnc1)c1cc(C)cc(C)c1 (stereo not shown) | 3.866% | 10.34% | 0.8264% | -11.69% | -6.94%
CCSc1nnc(N(CCC#N)CCC#N)s1 | -8.279% | 9.676% | -3.125% | -8.989% | 0.5921%
Cn1c(C2CC2)nc2c1CCN(CCOc1ccc(C#N)cc1)C2 | -3.586% | 2.329% | 4.58% | -1.466% | -1.171%
[H][C@@]12CN(Cc3ccoc3)CCO[C@]1([H])CN(C(=O)C1CC(F)(F)C1)C2 | - | -10.8% | - | - | -
O=C(c1nc2c(o1)CN(CC1CC1)C2)N1CCCC1 | -6.195% | - | 7.362% | -32.67% | -1.391%
CC[C@H]1CN(S(C)(=O)=O)CC[C@H]1CC(=O)NCCOC | -8.773% | -0.8494% | 8.911% | 11.48% | 3.094%
CC(C)n1[nH]c(=O)c2c1NC(=O)CC2c1ccncc1 (stereo not shown) | -11.72% | -15.29% | 0% | -29.72% | 3.314%
CCC(NC(=O)C1CC1)c1ccccc1OCC(=O)N1CCCC1 (stereo not shown) | -21.81% | -11.35% | 3.226% | -24.76% | 0.5957%
CC(C)(C)n1ncc(NCC(O)c2ccccc2)c(Cl)c1=O (stereo not shown) | 19.88% | -4.719% | 2.02% | -11.31% | 0.2581%
[H][C@]12CCN(C(=O)Nc3ccccc3C)CC[C@@]1([H])S(=O)(=O)N(C)C2 | - | -28.58% | - | - | -
CO[C@H]1CCN(Cc2cnn(C)c2)[C@@H]2CN(Cc3ccncc3)C[C@H]12 | -3.002% | - | 8.537% | 3.057% | -0.2058%
CC(=O)N1CCC(N2CCOC(CC3CCCCC3)C2)CC1 (stereo not shown) | -13.02% | 4.76% | 5.641% | -24.36% | 0.3119%
Cc1cc2cccc(C(=O)N3CC[C@](C)(O)[C@H](C)C3)c2o1 | -2.751% | -37.46% | -9.662% | -0.8471% | -7.055%
CC(C)(C)c1ccc2c(c1)CCN2C(=O)c1ccc(=O)[nH]n1 | -15.2% | -5.526% | 10.53% | -0.4907% | 5.207%
COCC(=O)N[C@H]1C[C@H]2C(=O)NC[C@@H](CCC(=O)NC3CC3)N2C1 | -5.411% | - | 11.88% | 4.013% | 5.198%
CN(C)C[C@H]1C[C@@H]2CN(Cc3ccoc3)C[C@@H]2O1 | 3.531% | - | 7.767% | -23.7% | 2.989%
COc1cc(C(=O)N2CCCS2(=O)=O)ccc1OC(C)C | -17.21% | 1.905% | 4.52% | -26.96% | -1.831%
COc1ccc(-c2noc(-c3ccc(N4CCC[C@H]4CO)nc3)n2)cc1 | -0.8558% | -0.2249% | 6.122% | -6.522% | 9.014%
Cc1nc(C(=O)N2CCOC(c3nc(C(C)C)n[nH]3)C2)c[nH]1 (stereo not shown) | -3.343% | -22% | 3.468% | -0.6756% | 1.085%
COc1ccc(C(=O)N2CCN(C(=O)c3csc(C(C)C)n3)CC2)cc1 | 3.558% | 0.7991% | 4.217% | -5.019% | 0.8363%
Cc1ccc2cccc(C(=O)N3CCN(c4cccnn4)CC3)c2n1 | -0.6358% | 3.127% | 2.521% | -8.621% | -4.461%
Cc1cnn(C2CCCN(C(=O)c3ccnc(N(C)C)c3)C2)c1 (stereo not shown) | 19.87% | -10.63% | 4.135% | 3.184% | -0.242%
Cc1ccc(S(N)(=O)=O)cc1C(=O)N1CCc2c(ncnc2N(C)C)C1 | -20.27% | -15.81% | 3.03% | -7.81% | 9.361%
CC(C)N(Cc1ccc(C#N)cc1)C(=O)NCCNc1ncccn1 | 1.594% | -7.923% | 10.92% | -5.858% | 3.68%
CN(CCCO)C(=O)c1cc(COc2ccc3c(c2)CCCC3)on1 | -1.216% | -12.75% | 2.646% | 6.636% | 6.357%
O=C(O)C(F)(F)F.[H][C@@]12CN(Cc3ccoc3)CCO[C@]1([H])CN(C(=O)COC1CCCC1)C2 | - | -21.6% | - | - | -
O=c1n(CCSCc2ccccc2Br)nc2ccccn12 | -15.64% | 0.8107% | -4.202% | -14.41% | 12.4%
O=C(c1cccc2c1OCO2)N1CCC(N2CCCC2)CC1 | 0.5236% | -1.411% | 8.407% | 0.7405% | -0.6051%
Cc1nc(C)c(CN2CCOC[C@H](Oc3ccc(S(C)(=O)=O)cc3)C2)s1 | -20.49% | 1.724% | 5.473% | 6.108% | 3.954%
CN(C)CCN1CCCC12CCN(C(=O)c1cccnc1)CC2 | 8.475% | - | 3.759% | -0.9521% | -1.95%
Cc1cn2nc(N3CCN(Cc4nc(C(C)C)no4)CC3)sc2n1 | -10.37% | 19.35% | -12.96% | -19.3% | -2.846%
C[C@@H]1CN(Cc2ccncc2)C[C@@]1(O)C1CC1 | -7.827% | - | 4.95% | -11.39% | 2.717%
N#Cc1cccc(OC23CCCN(CC2)C3)c1 (stereo not shown) | 13.52% | -7.241% | 2.051% | -13% | -0.2725%
CC(=O)N1CCC(C(=O)c2cc(C)cnc2N)CC1 | -19.67% | -1.165% | 0.5464% | -29.1% | 3.444%
CCOC(=O)c1cnn(C2CCN(C(=O)CC3CCCC3)CC2)c1N | 3.029% | 7.056% | 6.637% | -10.54% | 4.655%
O=C(O)c1nn(CC2CC2)c2c1CN(S(=O)(=O)c1cccnc1)CC2 | -1.168% | 3.954% | 1.136% | -26.22% | 1.607%
COCCCNc1c(-c2ccc(C)cc2)c(=O)c1=O | 6.652% | 16.21% | 9% | 15.46% | 2.697%
Cc1nc(C)n(C2CCCN(C(=O)CCOCC(C)C)C2)n1 (stereo not shown) | 17.89% | -2.003% | 2.874% | -22.14% | -2.499%
O=C(NCC1CC1)C1CN(C(=O)c2cccc(Cl)c2)CC12CCOCC2 (stereo not shown) | 6.188% | -1.996% | 6.522% | -20.2% | -2.663%
CCN1CC(C(=O)NCc2nc(C3CCCCC3)no2)CC1=O (stereo not shown) | -11.43% | 7.826% | 6.061% | -2.405% | 0.6016%
O=C(O)C(F)(F)F.O=C(O)C(F)(F)F.O=C(O)C(F)(F)F.c1c[nH]c(CN2CCC3(CC2)COCCN(CCN2CCCC2)C3)c1 | - | -0.05319% | - | - | -
Cc1ccc(C(=O)N2CCn3c(COCC4CC4)cnc3C2C)s1 (stereo not shown) | 2.751% | 3.746% | 9.091% | -17.63% | 2.554%
[H][C@]12CC[C@]([H])(CN(Cc3cc(=O)[nH]c(=O)[nH]3)C1)N(CC=C(C)C)C2 | - | -2.189% | - | - | -
Cc1ccc(C(=O)NC2CCN(Cc3noc(CC(C)C)n3)CC2)s1 | 3.516% | 13.71% | 5.021% | -8.407% | -8.098%
Cc1cccc(CN2CCc3c(COCC(=O)N(C)C)nn(C)c3C2)n1.O=C(O)C(F)(F)F.O=C(O)C(F)(F)F | - | 4.992% | - | - | -
CCCN1CCC(NC(=O)Nc2ccc(OC)c(OC)c2)CC1 | 2.442% | 9.783% | -2.89% | -24.61% | -0.825%
[H][C@@]12CCC(=O)N(CCC3=CCCCC3)[C@]1([H])CCN(C1CCOCC1)C2 | - | 5.681% | - | - | -
Cc1ccc(N2CC3(CCN(c4nccs4)C3)C2)nn1 | -9.948% | 16.51% | 4.959% | -4.405% | -0.01143%
CC(C)Oc1ccc(C(=O)Cn2cnnc2[S+](C)[O-])cc1 (stereo not shown) | 5.389% | 1.333% | 4.651% | -10.19% | 6.618%
CN(C)CC(=O)N1CCC2(CC1)CN(c1ncccn1)CCO2.O=C(O)C(F)(F)F | - | -1.923% | - | - | -
Cc1cc(C(F)(F)F)nc(N2CCN(Cc3nccn3C)CC2)n1 | 13.71% | -5.776% | -1.058% | -42.74% | -2.913%
O=C(O)C(F)(F)F.O=C(O)C(F)(F)F.[H][C@@]12CN(Cc3cc[nH]n3)C[C@]1([H])OCCN2CC1CC1 | - | -12.86% | - | - | -
CNC(=O)C1(CCCc2ccccn2)CN(Cc2scnc2C)C1 | 10.42% | 3.944% | 3.876% | -8.382% | -1.273%